{"source": "PubChem BioAssay AID493014", "about": "(National Center for Advancing Translational Sciences (NCATS), 2011)", "note": "Hit rate of the full screen: of about 340,000 compounds, about 170 (0.05%) were called active. Inconclusive results, whose numbers are uncertain, are shown with a selection of clear calls. Calls follow the shape of the dose curve; as a rule, active = well fitted inhibition curve with a large enough effect in the signal ratio, with a control signal flat (not every such curve was filed as active); inconclusive = small, poorly fitted or top-dose-only effect, or effect the other way, or a change in a side signal; inactive = flat fitted curve, though single readings scatter; the % refers to the signal ratio. Potencies of inconclusive entries are doubtful fits and often do not repeat. Potency is read from the fitted curve at half-maximal effect."}
{"experiment": "qHTS Assay to Find Inhibitors of Chronic Active B-Cell Receptor Signaling;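 as to activity change, negative = inhibition: plate controls were basal doxycycline-induced cells for no effect and cells given 10 µM MG132 for full effect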", "details": "ABC-DLBCL IkBa-CBG/CBR reporter, luminescence ratio (green luciferase fused to IkBa over red control in TMD8 lymphoma cells), 4 h; activity change, negative = inhibition: at 46.1 µM (top of the series)", "in_short": "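Concentration-response series (up to 46 uM) were applied to TMD8 dual-reporter cells for 4 h at 37C with doxycycline. Green/red ratio, after filter-overlap correction, defined %Activity; red signal alone was normalised to basal cells and zero luminescence.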"}
{"smiles": "CCn1nnc(NC(=O)c2ccc(-c3ccc(Cl)cc3)o2)n1", "Potency": "inconclusive: 29.1 µM [falling, single point]"}
{"smiles": "CCNc1nc(NCC)nc(OCCNS(=O)(=O)c2ccccc2)n1", "activity change, negative = inhibition": "inactive: -0.916%"}
{"smiles": "O=C(COC(=O)c1n[nH]c2ccccc12)Nc1ccccc1", "Potency": "inconclusive: 35.5 µM [falling, single point]"}
{"smiles": "C=CCn1c(C)cc(C(=O)CSc2nnc3c(Cl)cc(Cl)cn23)c1C", "Potency": "inconclusive: 9.2 µM [rising, partial curve, poor fit]"}
{"smiles": "O=S1(=O)CCC(n2nccc2-c2ccccc2)C1", "note": "(centres undefined)", "activity change, negative = inhibition": "inconclusive: 3.04%"}
{"smiles": "Cc1ccc(NC(=O)N/C=C/c2ccco2)cc1", "Potency": "inconclusive: 20.6 µM [falling, single point]"}
{"smiles": "Cc1cc(C(=O)N/N=C/c2ccc(C)o2)c2ccccc2n1", "activity change, negative = inhibition": "inconclusive: -4.69%"}
{"smiles": "COC(=O)c1c(/N=C/NOCc2ccc(Cl)cc2)sc2c1CCN(c1ncc(C(F)(F)F)cc1Cl)C2", "activity change, negative = inhibition": "inconclusive: 21.9%"}
{"smiles": "O=c1[nH]c(CSc2nc3ccccc3[nH]2)nc2c1cnn2-c1ccccc1", "activity change, negative = inhibition": "inactive: 8.66%"}
{"smiles": "OC(COc1cccc2ccccc12)CN1CCN(c2cccc(Cl)c2)CC1", "note": "(centres undefined)", "Potency": "inconclusive: 35.5 µM [falling, partial curve, poor fit]"}
{"smiles": "COc1ccccc1C1=NOC(Cn2c(=O)c3c(ncn3C)n(C)c2=O)C1", "note": "(centres undefined)", "Potency": "inconclusive: 35.5 µM [falling, partial curve, poor fit]"}
{"smiles": "CC(C)CN1C(=O)c2ccc(C(=O)Nc3c[nH]c(=O)[nH]c3=O)cc2C1=O", "activity change, negative = inhibition": "inconclusive: 9.28%"}
{"smiles": "CCN(c1c(C)n(C)n(-c2ccccc2)c1=O)S(C)(=O)=O", "activity change, negative = inhibition": "inconclusive: 2.85%"}
{"smiles": "CC(C)(C)OC(=O)N[C@@H](Cc1ccccc1)c1nnc(S(=O)(=O)Cc2cccc(F)c2)o1", "activity change, negative = inhibition": "inconclusive: 18.9%"}
{"smiles": "COc1ccc(NC(=O)CSc2nc(C)cc(C)n2)c([N+](=O)[O-])c1", "activity change, negative = inhibition": "inconclusive: 2.14%"}
{"smiles": "O=S(=O)(Nc1ccccc1N1CCCCC1)c1ccccc1", "activity change, negative = inhibition": "inactive: -1.08%"}
{"smiles": "COc1ccc(CCNC(=O)C2CCN(S(=O)(=O)c3ccc(-n4cnnn4)cc3)CC2)cc1OC", "activity change, negative = inhibition": "inactive: -0.0845%"}
{"smiles": "COc1ccccc1C(=O)Nc1ccc2c(c1)C(=O)NC2=O", "Potency": "inconclusive: 6.31 µM [falling, full curve]"}
{"smiles": "O=C1CCC(C(=O)OCC(=O)c2c[nH]c3ccccc23)=NN1", "Potency": "inconclusive: 5.8 µM [falling, partial curve, poor fit]"}
{"smiles": "CCCc1nn(C)c(C(=O)Nc2ccc3ccccc3c2)c1Cl", "activity change, negative = inhibition": "inconclusive: -0.278%"}
{"smiles": "O=C(COc1ccc(Cl)cc1Br)NNC(=O)C(=O)N1CCCCC1", "activity change, negative = inhibition": "inconclusive: 13.1%"}
{"smiles": "Oc1ccc(Br)cc1-c1cc(-c2ccccc2Cl)[nH]n1", "activity change, negative = inhibition": "inconclusive: 4.5%"}
{"smiles": "O=c1c2cc(NC(=S)NCCN3CCCCCC3)ccc2nc2n1CCCCC2", "activity change, negative = inhibition": "inactive: 2.38%"}
{"smiles": "CCn1c(=S)[nH]c2cc(S(=O)(=O)N3CCOCC3)ccc21", "activity change, negative = inhibition": "inconclusive: -19.8%"}
{"smiles": "OCCN1CCN(CC/C=C2/c3ccccc3Sc3ccc(Cl)cc32)CC1", "Potency": "inconclusive: 25.9 µM [falling, single point]"}
{"smiles": "CC(OC(=O)CN1C(=O)c2ccccc2C1=O)C(=O)NC1(C#N)CCCCC1", "note": "(centres undefined)", "activity change, negative = inhibition": "inconclusive: -0.432%"}
{"smiles": "OCC1(Cc2ccc(Cl)cc2)CCN(CC2CC=CCC2)CC1", "note": "(centres undefined)", "activity change, negative = inhibition": "inactive: 16.1%"}
{"smiles": "Cc1cc(C)c(C)c(OCC(=O)O/N=C(\\N)c2ccccn2)c1", "Potency": "inconclusive: 16.4 µM [falling, partial curve]"}
{"smiles": "COc1ccc(-c2nn(-c3ccccc3)cc2/C=N/Nc2ccc(Cl)c(C(=O)O)c2)cc1OC", "Potency": "inconclusive: 14.1 µM [falling, partial curve, poor fit]"}
{"smiles": "Cc1ccc(/C=C/C(=O)Nc2ccc(S(=O)(=O)Nc3cc(C)nc(C)n3)cc2)cc1", "Potency": "inconclusive: 14.1 µM [falling, partial curve, poor fit]"}
{"smiles": "COc1cc(/C=C(\\C#N)C(=O)Nc2ccccc2)ccc1OCCN1CCOCC1", "activity change, negative = inhibition": "inactive: -13.1%"}
{"smiles": "CCN(CC)CCCNc1cc2n(c(=O)n1)CCc1cc(OC)c(OC)cc1-2", "activity change, negative = inhibition": "inconclusive: -1.26%"}
{"smiles": "COc1cc2c(cc1OC)CN(C(=S)Nc1ccc(Cl)cc1)CC2", "activity change, negative = inhibition": "inactive: -0.664%"}
{"smiles": "COc1ccc(/C=C\\C(=O)c2c(O)ccc3c(C)cc(=O)oc23)cc1OC", "activity change, negative = inhibition": "inconclusive: 4.59%"}
{"smiles": "CCOc1cc(CNCCc2c[nH]c3ccccc23)cc(Cl)c1OCC(N)=O", "activity change, negative = inhibition": "inconclusive: 3.86%"}
{"smiles": "O=C(O)CCCNS(=O)(=O)c1cccc2nsnc12", "activity change, negative = inhibition": "inactive: -4.43%"}
{"smiles": "O=C(NC1CCCCC1)c1sc(=S)n2c1[nH]c(=O)c1ccccc12", "activity change, negative = inhibition": "inconclusive: 10.4%"}
{"smiles": "Nc1ccccc1-c1nnn(CC(=O)Nc2ccc3c(c2)OCCO3)n1", "activity change, negative = inhibition": "inconclusive: -26.8%"}
{"smiles": "C=CCNC(=S)NCC", "activity change, negative = inhibition": "inconclusive: -1.48%"}
{"smiles": "O=C(CN1CCN(C(=O)CNC(=O)c2ccc3c(c2)OCO3)CC1)Nc1cccc(F)c1", "activity change, negative = inhibition": "inconclusive: -1.24%"}
{"smiles": "COc1ccc(Br)cc1C(=O)Nc1cc(C)cc(C)c1", "activity change, negative = inhibition": "inconclusive: -10.6%"}
{"smiles": "CC1CCCCN1C(=O)C(Cc1ccccc1)N1C(=O)C2CCCCC2C1=O", "note": "(centres undefined)", "activity change, negative = inhibition": "inconclusive: 1.41%"}
{"smiles": "CCn1c(=N)n(CC(=O)c2ccc(OC)cc2)c2ccccc21", "activity change, negative = inhibition": "inconclusive: 2.51%"}
{"smiles": "O=C1COc2ccc(C(=O)COC(=O)/C=C/c3ccco3)cc2N1", "activity change, negative = inhibition": "inconclusive: 3.21%"}
{"smiles": "N#Cc1c(-c2ccccc2F)cc(C2CC2)nc1SCC(=O)c1cccs1", "Potency": "inconclusive: 8.2 µM [rising, partial curve]"}
{"smiles": "CSc1ncccc1C(=O)NNC(=O)c1ccc(NS(=O)(=O)c2cccs2)cc1", "activity change, negative = inhibition": "inactive: 4.39%"}
{"smiles": "Cc1cccc(NC(=O)CCCCCN2C(=O)[C@@H]3Cc4ccccc4CN3C2=O)c1", "Potency": "inconclusive: 28.2 µM [falling, single point]"}
{"smiles": "Cc1cc(N2CCOCC2)nc(SCc2ccc(Cl)cc2Cl)n1", "activity change, negative = inhibition": "inactive: 3.5%"}
{"smiles": "CCN(CC)c1ccc(NC(=O)CN2C(=O)CC(C)(C)S(=O)(=O)c3ccccc32)c(C)c1", "activity change, negative = inhibition": "inactive: 2.51%"}
{"smiles": "O=c1cc2oc3cc(O)c(O)cc3c(-c3ccccc3[N+](=O)[O-])c-2cc1O", "Potency": "inconclusive: 11.2 µM [rising, partial curve, poor fit]"}
{"smiles": "CCn1c(COc2cccc(OC)c2)nnc1SCC(=O)Nc1cccc(OC)c1", "activity change, negative = inhibition": "inconclusive: -24.9%"}
{"smiles": "Cc1oncc1C(=O)Nc1cccc(C#N)c1", "activity change, negative = inhibition": "inactive: 1.04%"}
{"smiles": "CCc1c(C)c(C#N)c2nc3ccccc3n2c1NCc1ccco1", "Potency": "inconclusive: 7.31 µM [rising, partial curve]"}
{"smiles": "COc1ccc(-c2nnc(NC(=O)c3cc(Cl)ccc3Cl)o2)cc1", "activity change, negative = inhibition": "inconclusive: 3.08%"}
{"smiles": "Fc1ccccc1CNc1ccc(Cl)cc1", "activity change, negative = inhibition": "inconclusive: 16.6%"}
{"smiles": "COc1ccc(/C=C2\\CCCC(C(=O)C(F)(F)F)=C2O)cc1OC", "Potency": "inconclusive: 35.5 µM [falling, single point]"}
{"smiles": "COC(=O)c1ccc(-c2nc3cc(Cl)c(N)cc3s2)cc1", "Potency": "inconclusive: 0.411 µM [falling, full curve, poor fit]"}
{"smiles": "O=C(Nc1ccc(CN2CCOCC2)cc1)c1ccc(-c2cccc(Cl)c2)o1", "activity change, negative = inhibition": "inconclusive: 6.02%"}
{"smiles": "CCOc1ccc(-c2cc(CCCC(=O)NCc3cccnc3)no2)cc1", "Potency": "inconclusive: 8.2 µM [falling, partial curve]"}
{"smiles": "Cc1cccc(C(=O)N2N=C(c3ccc(NS(C)(=O)=O)cc3)CC2c2cccs2)c1", "note": "(centres undefined)", "Potency": "inconclusive: 20 µM [falling, partial curve, poor fit]"}
{"smiles": "O=C(NC(=S)Nc1ccc(Br)cc1)C1CCCCC1", "activity change, negative = inhibition": "inconclusive: 12.1%"}
{"smiles": "CCCCN(C(=O)c1ccc(NC2CC2)c([N+](=O)[O-])c1)c1c(N)n(CCCC)c(=O)[nH]c1=O", "activity change, negative = inhibition": "inconclusive: 15.2%"}
{"smiles": "Cc1cc(C)n(C(=O)CSc2nc3ccccc3o2)n1", "activity change, negative = inhibition": "inactive: 5.99%"}
{"smiles": "Cc1ccc2sc(N(CCCN(C)C)C(=O)c3ccc(S(=O)(=O)N(C)Cc4ccccc4)cc3)nc2c1C", "activity change, negative = inhibition": "inconclusive: -29.3%"}
{"smiles": "Cc1ccc(S(=O)(=O)Nc2ccc(=O)n(Cc3ccc(Cl)c(Cl)c3)c2)cc1", "Potency": "inconclusive: 10 µM [falling, partial curve]"}
{"smiles": "COc1ccc(/C=C/C(=O)NCCCN2CCCC2)cc1", "activity change, negative = inhibition": "inactive: -2.2%"}
{"smiles": "CCN(CC)C(=S)SCC(=O)c1ccccc1", "activity change, negative = inhibition": "inactive: -8.87%"}
{"smiles": "Cn1nc(C(=O)Nc2cccc(S(N)(=O)=O)c2)c2ccccc2c1=O", "activity change, negative = inhibition": "inconclusive: 5.38%"}
{"smiles": "CC(=O)OCC(=O)C1CCC2C3CC=C4CC(O)CCC4(C)C3CCC12C", "note": "(centres undefined)", "activity change, negative = inhibition": "inactive: 11%"}
{"smiles": "COC(=O)c1ccc2c(c1)N(C)S(=O)(=O)c1cnc(SCC(=O)C(C)(C)C)nc1-2", "activity change, negative = inhibition": "inconclusive: 1.89%"}
{"smiles": "CC(C)(C)OC(=O)N1CC(O)CC1C(=O)OCC(=O)c1ccc(Cl)cc1", "note": "(centres undefined)", "activity change, negative = inhibition": "inconclusive: -3.62%"}
{"smiles": "COc1ccccc1C(=O)N1CCC(N2CCN(c3ccccc3)CC2)CC1", "activity change, negative = inhibition": "inconclusive: -0.108%"}
{"smiles": "Cc1ccc(N(CC(=O)NC2CCCCC2)C(=O)CNC(=O)c2ccco2)cc1F", "Potency": "inconclusive: 17.8 µM [falling, partial curve]"}
{"smiles": "Cc1ccc(-c2noc(-c3ccno3)n2)cc1", "activity change, negative = inhibition": "inconclusive: 2.24%"}
{"smiles": "Cc1ccccc1-n1nnnc1Sc1nnnn1-c1ccccc1", "activity change, negative = inhibition": "inconclusive: 29%"}
{"smiles": "COc1cccc(NC(=O)COC(=O)Cc2ccc(Br)cc2)c1", "Potency": "inconclusive: 25.1 µM [falling, single point]"}
{"smiles": "Cc1cccc(/C(N)=N/OC(=O)CCc2ccccc2)c1", "activity change, negative = inhibition": "inconclusive: -0.78%"}
{"smiles": "Cc1cccc(-n2c(CNC(=O)c3ccc(S(=O)(=O)N(C)C)cc3)nnc2SCC(=O)Nc2ccc(F)cc2)c1", "activity change, negative = inhibition": "inconclusive: -11.9%"}
{"smiles": "COc1cc(C(F)(F)F)nc2ccc(C#CCOC(=O)Nc3ccccc3)cc12", "activity change, negative = inhibition": "inconclusive: -12.8%"}
